{"source": "PubChem BioAssay AID504774 – Drosophila RNAi Screening Center – 2011", "purpose": "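Knock-downs that shift viability of MMS-exposed cells relative to untreated ones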 (primary screen)", "system": "Drosophila Kc167 cells", "reagents": "long dsRNA against Drosophila genes, about 0.25 µg dsRNA per well", "duration": "about 6 days: 3 days knock-down, then 3 days with or without MMS", "challenge": "methyl methanesulphonate 0.004% (w/v) for 3 days after knock-down", "read-out": "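Viability in wells given MMS, read as ATP luminescence, normalised by quantiles plate by plate and averaged across replicates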", "scale": "mean viability with MMS: higher = more surviving cells after MMS", "note": "In all, the deposit lists about 23,000 reagents; below is an unselected part of those with a known target gene and a result. 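Values are quantile-normalised luminescence on an arbitrary scale; higher means more cells surviving MMS.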 Not all columns of the deposit are shown. No sequences are given here."}
{"gene": "Nprl2 (Nitrogen permease regulator-like 2)", "DRSC id": "DRSC20153", "mean viability with MMS": 3.73e6}
{"gene": "dachs", "DRSC id": "DRSC02072", "mean viability with MMS": 3.24e6}
{"gene": "dachs", "DRSC id": "DRSC02191", "mean viability with MMS": 3.49e6}
{"gene": "CG14259", "DRSC id": "DRSC14754", "mean viability with MMS": 3.56e6}
{"gene": "CG33770", "DRSC id": "DRSC11717", "mean viability with MMS": 3.34e6}
{"gene": "Ms (Myosuppressin)", "DRSC id": "DRSC16041", "mean viability with MMS": 3.56e6}
{"gene": "CG14511", "DRSC id": "DRSC14863", "mean viability with MMS": 3.46e6}
{"gene": "CG32944", "DRSC id": "DRSC12138", "mean viability with MMS": 3.47e6}
{"gene": "CG32944", "DRSC id": "DRSC12341", "mean viability with MMS": 3.36e6}
{"gene": "CG4374", "DRSC id": "DRSC15570", "mean viability with MMS": 3.51e6}
{"gene": "CG32447", "DRSC id": "DRSC11732", "mean viability with MMS": 3.84e6}
{"gene": "CG32447", "DRSC id": "DRSC11805", "mean viability with MMS": 3.70e6}
{"gene": "CG10031", "DRSC id": "DRSC00286", "mean viability with MMS": 3.77e6}
{"gene": "Ir47a (Ionotropic receptor 47a)", "DRSC id": "DRSC06215", "mean viability with MMS": 3.63e6}
